Results are given in words; binding and its absence hold for the method and conditions named. In cells and extracts the contact can be indirect. Here binding means that the protein was enriched with, or labelled near, the bait; the list need not be complete.
Target: 3-Flag-tagged ESCO2 (establishment of sister chromatid cohesion N-acetyltransferase 2) (UniProt Q56NI9)
Assay: affinity purification with mass spectrometry; FaDu cells stably expressing 3-Flag-tagged ESCO2 or vehicle vector; IP lysis buffer; anti-Flag antibody on protein A beads, 4 °C overnight; eluted with 3-Flag peptide; Coomassie-stained gel, shotgun LC-MS/MS

Chains of the proteins cited; added tags and fusions are not shown.
UniProt Q56NI9: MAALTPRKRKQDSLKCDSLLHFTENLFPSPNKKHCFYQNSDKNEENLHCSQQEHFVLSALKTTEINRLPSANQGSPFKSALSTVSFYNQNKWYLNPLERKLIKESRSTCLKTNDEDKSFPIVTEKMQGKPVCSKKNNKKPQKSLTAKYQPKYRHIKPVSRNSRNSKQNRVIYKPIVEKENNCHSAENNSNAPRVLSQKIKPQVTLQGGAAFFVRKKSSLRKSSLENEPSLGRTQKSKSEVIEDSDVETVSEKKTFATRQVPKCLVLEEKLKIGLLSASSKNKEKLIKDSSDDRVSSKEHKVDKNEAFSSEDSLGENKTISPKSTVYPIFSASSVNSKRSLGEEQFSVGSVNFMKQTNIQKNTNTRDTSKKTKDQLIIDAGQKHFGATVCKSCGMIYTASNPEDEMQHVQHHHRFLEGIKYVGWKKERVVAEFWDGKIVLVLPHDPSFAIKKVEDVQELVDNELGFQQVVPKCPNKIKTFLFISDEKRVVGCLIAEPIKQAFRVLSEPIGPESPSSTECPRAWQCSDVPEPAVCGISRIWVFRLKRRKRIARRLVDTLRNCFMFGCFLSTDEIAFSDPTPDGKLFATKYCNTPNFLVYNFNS
UniProt P42224: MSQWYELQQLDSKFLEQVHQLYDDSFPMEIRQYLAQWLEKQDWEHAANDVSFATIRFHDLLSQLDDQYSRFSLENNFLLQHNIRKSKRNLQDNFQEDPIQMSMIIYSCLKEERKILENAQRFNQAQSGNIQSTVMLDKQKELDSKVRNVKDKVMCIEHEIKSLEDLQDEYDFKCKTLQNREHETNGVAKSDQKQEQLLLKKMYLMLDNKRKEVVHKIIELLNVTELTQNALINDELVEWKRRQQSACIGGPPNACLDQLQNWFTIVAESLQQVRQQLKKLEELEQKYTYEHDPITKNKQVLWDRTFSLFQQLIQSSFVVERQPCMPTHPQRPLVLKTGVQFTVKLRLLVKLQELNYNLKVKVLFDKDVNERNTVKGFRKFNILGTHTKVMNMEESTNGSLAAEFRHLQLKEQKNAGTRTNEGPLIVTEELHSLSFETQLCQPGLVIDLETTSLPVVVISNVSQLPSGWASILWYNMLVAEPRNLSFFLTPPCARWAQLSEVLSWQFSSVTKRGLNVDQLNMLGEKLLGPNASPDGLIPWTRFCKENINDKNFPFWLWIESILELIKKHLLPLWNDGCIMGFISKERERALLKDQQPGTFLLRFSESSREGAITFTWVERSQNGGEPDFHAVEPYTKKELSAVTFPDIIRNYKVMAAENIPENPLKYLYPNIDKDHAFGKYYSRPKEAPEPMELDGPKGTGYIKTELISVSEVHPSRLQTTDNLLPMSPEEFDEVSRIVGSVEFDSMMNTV

Question: Which binding does the source give for “signal transducer and activator of transcription 1 (STAT1) (from UniProt P42224 1-750)” here?
Answer: Its binding is “binds”.

Source: PMC10647066
